Experimental data reported in PubChem BioAssay AID493014 (National Center for Advancing Translational Sciences (NCATS), 2011).
The other results are listed elsewhere or left out. Further columns of the screen follow, without active or inactive calls. Most of these compounds were active or inconclusive in the main read-out, so they are no random draw. Potencies come from curve fits of mixed quality, noted in brackets.

Test: qHTS Assay to Find Inhibitors of Chronic Active B-Cell Receptor Signaling
Conditions: ABC-DLBCL IkBa-CBG/CBR reporter, luminescence ratio (green luciferase fused to IkBa over red control in TMD8 lymphoma cells), 4 h
How it was run: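 Cell line TMD8 (human ABC DLBCL), stably expressing tet-inducible CBG68-IkBa fusion and CBR; IMDM/0.5% FBS; cpd up to 46 uM; dox induction, 4 h, 37C/5% CO2; dual luminescence; green/red ratio; MG132 control.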

[1] = measured here: CBR red luminescence, cell number

Compound | AC50 [1] | AC50 (measured here: IkBa-CBG green luminescence)
Cc1ccc([N+](=O)[O-])cc1-c1ccc(/C=N/NC(=O)CN2CCOCC2)o1 | 11.2 µM [rising, single point] | –
CC1=C(C(=O)OCc2ccccc2)C(c2ccc3ccccc3c2)NC(=O)N1CCCC(=O)O (stereo not drawn) | 22.4 µM [falling, single point] | –
Brc1ccc(OCCCCCN2CCOCC2)cc1 | 31.6 µM [rising, partial curve, poor fit] | –
O=C(NC1CCCCCC1)c1c(O)nc2sccn2c1=O | 14.6 µM [falling, single point] | –
O=C(CCCN1CCc2[nH]c3ccc(F)cc3c2C1)c1ccc(F)cc1 | 10 µM [falling, single point] | –
CN1CCN(CC/C=C2/c3ccccc3Sc3ccc(S(=O)(=O)N(C)C)cc32)CC1 | 35.5 µM [falling, single point] | –
C[C@@]12C(=O)Nc3cc(F)ccc3C(=O)N1[C@H]1c3cc(Br)ccc3OC[C@@H]1[C@@H]2c1ccccc1 | 23.1 µM [falling, single point] | 4.61 µM [rising, full curve, poor fit]
O=C(Nc1ccccc1)c1ccc(S(=O)(=O)Nc2cccc(O)c2)cc1 | 35.5 µM [falling, partial curve, poor fit] | –
CCOC(=O)c1sc(NC(=O)CCSC)nc1C | 22.4 µM [falling, single point] | –
CC(C)Nc1nc(NC(N)=S)nc(NC(C)(C)C)n1 | 2.82 µM [rising, full curve, poor fit] | –
Cc1cc(C)c(S(=O)(=O)NC2CCN(Cc3ccccc3)CC2)c(C)c1 | 20 µM [falling, partial curve] | –
O=C(CSc1nnc(CNC(=O)c2ccccc2F)o1)NCC1CCCO1 (stereo not drawn) | 2.31 µM [rising, full curve, poor fit] | –
Cn1c(NCCCN2CCOCC2)nc2c1c(=O)n(Cc1ccc(Cl)cc1)c(=O)n2C | 28.2 µM [falling, single point] | –
CCCCNc1c(-c2ccc(OC)c(SC3CCCCC3)c2)nc2ccc(Cl)cn12 | 3.26 µM [rising, full curve, poor fit] | –
c1ccc2sc(Nc3nc4cc5c(cc4s3)OCO5)nc2c1 | 23.1 µM [falling, single point] | –
O=[N+]([O-])c1ccc2oc(-c3cccc(O)c3)nc2c1 | 11.2 µM [falling, partial curve] | –
CSCCC(Nc1ccc(S(=O)(=O)N2CCOCC2)cc1[N+](=O)[O-])C(=O)OCC(=O)NCC(C)C (stereo not drawn) | 18.4 µM [rising, single point] | –

2 compounds drawn at random from those above, as already listed:
Compound | AC50 [1] | AC50 (measured here: IkBa-CBG green luminescence)
O=[N+]([O-])c1ccc2oc(-c3cccc(O)c3)nc2c1 | 11.2 µM [falling, partial curve] | –
Cc1cc(C)c(S(=O)(=O)NC2CCN(Cc3ccccc3)CC2)c(C)c1 | 20 µM [falling, partial curve] | –
